Laboratory results published in US12606541B2, “PPARg modulators and methods of use” (Eisai R&D Management Co., Ltd., priority 2020, dated 2026).

Sequences of proteins named here, by UniProt entry; tags and fusion partners are left off. Residues count along the entry.
UniProt P37231, 234-505 limits assumed: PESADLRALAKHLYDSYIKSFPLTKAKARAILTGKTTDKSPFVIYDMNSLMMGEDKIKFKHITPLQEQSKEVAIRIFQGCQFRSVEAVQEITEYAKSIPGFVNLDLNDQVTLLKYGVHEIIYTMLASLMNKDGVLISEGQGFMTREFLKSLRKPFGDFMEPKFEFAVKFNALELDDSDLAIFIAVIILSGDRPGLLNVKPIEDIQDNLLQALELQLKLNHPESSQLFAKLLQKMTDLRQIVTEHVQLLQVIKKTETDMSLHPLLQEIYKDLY

Tests used:
UM-UC-9 engineered cells = assay: Cell proliferation / short-term viability assay, CellTiter-Glo 144 h; conditions: read-out: CTGlo 144 h UMUC9.5, G150
Description: Cell Seeding for Proliferation Assay
UM-UC-9 engineered cells were cultured in Dulbecco's Modified Eagle Medium (DMEM) supplemented with 10% FBS, 25 mM glucose (high glucose), 4.0 mM L-glutamine, 2.0 mM GlutaMAX™, 1.0 mM pyruvate, 1.0% non-essential amino acids (NEAA) in a 95% humidified incubator at 37° C. with 5% CO2. Cell banks of UM-UC-9 engineered assay-ready cells (ARCs) were prepared from a very active growth stage. Vials of ARCs containing approximately 5×10^6 cells per vial were stored in liquid nitrogen vapor phase cryostorage until use.
For making assay plates, ARCs were recovered from cryostorage, strained in a […] cell strainer, verified for cell viability >90% and counted using a cell counter (Cellometer Auto 1000, Nexelom). Each cell line was seeded into 384-well plates (50 μl/well) using DMEM medium at a density previously determined to be in log growth phase 7 days post-seeding (500 cells/well) using a bulk reagent dispenser (Multidrop™ Combi, Thermo Scientific) with a large-bore plastic-tip cassette pre-sanitized with 70% ethanol. One plate of cells was designated as the pretreatment time-zero (T0) control. Freshly seeded plates were allowed to sit lidded for 30 minutes within a biosafety cabinet for cells to settle distributed within the plate wells uniformly and then placed into an automated incubator (STX110, Liconic) at 37° C., 5% CO2, and 95% relative humidity.
Preparation of Test Compound in Assay-Ready Plate
Compounds were stored in a low-temperature sample archive as 10 mM dimethyl sulfoxide (DMSO) solutions at −20° C. under reduced humidity (−45° C. dew point) and protected from light. […] Samples retrieved from low-temperature archive storage were solubilized by heated sonication (Bransonic® Ultrasonic Bath, Branson), transferred (Microlab Starlet, Hamilton) and serially-diluted (Viaflo Assist, Integra) by low-volume liquid handlers, and tracked in LIMS by automation log files to create a ID barcoded master dose-response plate (MDR) to serve as a standard source for all assay-ready plates (ARP) used within an experiment. […]

His6-TEV-PPARγ-(234-505) = His6-TEV-PPARγ-(234-505) (Homo sapiens, UniProt P37231); assay: TR-FRET Assay to Measure Co-R Peptide Recruitment to PPARγ; conditions: read-out: TR-FRET i-Ag, Co-R peptide (SMRT-ID2) recruitment, top final concentration 20 μM

COc1cc(-c2cc(C(=O)N3CC[C@H](C(=O)NC4CCC(C)N(C)C4)CC34CC4)n[nH]2)c(F)cn1 (single isomer, unassigned) [Example 423]
IC50 (UM-UC-9 engineered cells): 2470 nM | AC50 (His6-TEV-PPARγ-(234-505)): 1890 nM

COc1cc(-c2cc(C(=O)N3CCC(C(=O)NC4CCC(C(F)(F)F)OC4)CC3)n[nH]2)c(Cl)cn1 (single isomer, unassigned) [Example 249]
IC50 (UM-UC-9 engineered cells): 244 nM | AC50 (His6-TEV-PPARγ-(234-505)): 26.4 nM

COc1cc(-c2cc(C(=O)N3CCC(C(=O)NC4CCC(C(F)(F)F)N(C)C4)CC3)n[nH]2)c(Cl)cn1 (single isomer, unassigned) [Example 248]
IC50 (UM-UC-9 engineered cells): 411 nM | AC50 (His6-TEV-PPARγ-(234-505)): 66.3 nM

The match of structure and compound is tentative.
